Reference: article PMC12096823, “SloR-SRE binding to the S. mutans mntH promoter is cooperative”

Target: T1, SloR (UniProt I6L923)
T1 sequence (looked up, limits assumed): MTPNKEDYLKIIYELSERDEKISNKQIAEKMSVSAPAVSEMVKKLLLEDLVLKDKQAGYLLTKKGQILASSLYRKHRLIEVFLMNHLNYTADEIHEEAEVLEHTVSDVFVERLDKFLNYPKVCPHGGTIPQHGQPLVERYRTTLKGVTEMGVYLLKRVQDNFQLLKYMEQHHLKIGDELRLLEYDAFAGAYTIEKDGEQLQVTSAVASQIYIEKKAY
Test: EMSA
Settings: EMSA: 60-200 nM SloR, 16 uL, 12% native gel, buffer as cited, recombinant protein

[1] = 15 mM EDTA, label: 5' 32P, letters put together from the description

Row | Sequence | binding result [1] | binding result (15 mM EDTA, label: 5' 32P) | other results
1 | AGGTACACCTTTTTTAATTTTTAAGCATACTTAACATATGCTGTTTTTTATGCTATAATGCAATTAACCCAATTATATTAGAAAAGAGATTTTCAAAATG (double strand) [mntH 100-bp deletion amplicon] | no binding | – | –
2 | ATTTTTAAGCATACTTAACATA (double strand) [mntH.22.SRE1.WT] | – | – | binding result (15 mM EDTA, label: 5' 32P in EMSA): no binding
3 | CTTTTCGCAATCTGATTGTTTAGACATCTCTGATTAATTTTCCATAATCTCTATTGTGTTTTATACTGTCAGTAATTCTTACAAACTCTTTATATTCAGTAATAATAGGTACACCTTTTTTAATTTTTAAGCATACTTAACATATGCTGTTTTTTATGCTATAATGCAATTAACCCAATTATATTAGAAAAGAGATTTTCAAAATG (double strand) [mntH 206-bp promoter probe] | – | no binding | binding result (60 nM SloR, label: 5' 32P): binds
4 | TACTGTCAGTAATTCTTACAAACTCTTTATATTCAGTAATAATAGGTACACCTTTTTTAATTTTTAAGCATACTTAACATATGCTGTTTTTTATGCTATA (double strand) [mntH.100.WT] | – | no binding | –
5 | TCTCTATTGTGTTTTATACTGTCAGTAATTCTTACAAACTCTTTATATTCAGTAATAATAGGTACACCTTTTTTAATTTTTAAGCATACTTAACATATGCTGTTTTTTATGCTATAATGCAATTAACCCAATTATATTAGAAAAGAGATTTTCAAAATG (double strand) [mntH 159-bp promoter probe] | no binding | – | –

For at least one entry, the source does not settle the construct or the ends of the probe. Negatives hold for the conditions tested. At least one verdict rests on a figure or table, not on a statement of the authors. Protein sequences can lack the tags named with them.
